At least one structure is not confirmed: it was looked up by name or label, or the drawing left a doubt.
Tested on: Porphyromonas gingivalis
Experiment: Treatment of mice orally infected with Porphyromonas gingivalis with an IRM (alveolar bone loss, plaque bacteria)
Type: in vivo, BALB/c mice

## CCOCc1nc2c(N)nc3ccccc3c2n1CC(C)(C)O [resiquimod, 4-amino-2-ethoxymethyl-αα-dimethyl-1H-imidazo[4,5-c]quinoline-1-ethanol]
Infected mice, quantitative PCR of subgingival plaque, any point in the experiment, FIG. 2
  levels of P. gingivalis in plaque, treated compared with untreated animals: no significant difference
Mice infected with P. gingivalis, oral gavage twice weekly
  bone loss, 1 mg/kg doses compared with 0.1 mg/kg: no difference
Mice infected with P. gingivalis, oral gavage twice weekly for seven weeks, 1 mg/kg or 0.1 mg/kg, p<0.01, FIG. 3
  alveolar bone loss compared with untreated infected animals: substantially less bone loss
